## Results from one PubChem assay

From PubChem BioAssay record AID504749 (NCATS, 2011).

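A panel of P. falciparum strains inside erythrocytes is exposed to compounds for three days, then a DNA-binding dye reports the amount of parasite DNA. Each compound was titrated across a series from about 0.000037 to 29 µM. The number is the fitted AC50, the concentration giving a half-maximal change in signal; a lower value means higher potency, whether the curve shows a decrease or an increase. Calls follow the curve class and fit quality: every row here is inconclusive, covering signal-raising curves and weak, poorly fitted, partial or highest-dose-only inhibition curves.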

Values are in µM. Every entry below has the call inconclusive. These entries are mostly ones the record files as inconclusive; other results of the assay are not listed here. A potency from a partial, single-point or poor curve is only a rough figure. The first word of each remark tells which way the curve ran; it can be opposite to the aim of the assay.

| # | structure | setting | potency (µM) | curve as filed |
|---|---|---|---|---|
| 1 | `CCOc1ccc2c(c1)C(C)=CC(C)(C)N2` | CP265 | 3.981 | activator, single point |
| 2 | `CCOc1ccc2c(c1)C(C)=CC(C)(C)N2` | CP215 | 13.46 | inhibitor, single point |
| 3 | `CCOc1ccc2c(c1)C(C)=CC(C)(C)N2` | CP335 | 4.256 | inhibitor, partial curve, poor fit |
| 4 | `CCOc1ccc2c(c1)C(C)=CC(C)(C)N2` | 3D7 | 3.981 | inhibitor, single point |
| 5 | `CCOc1ccc2c(c1)C(C)=CC(C)(C)N2` | ICS | 17.78 | inhibitor, single point |
| 6 | `Oc1ccc2[nH]cc(CCCCN3CC=C(c4ccccc4)CC3)c2c1` | CP192 | 10.69 | inhibitor, partial curve |
| 7 | `Oc1ccc2[nH]cc(CCCCN3CC=C(c4ccccc4)CC3)c2c1` | C2A | 14.13 | inhibitor, single point |
| 8 | `Oc1ccc2[nH]cc(CCCCN3CC=C(c4ccccc4)CC3)c2c1` | CP265 | 11.22 | inhibitor, single point |
| 9 | `Oc1ccc2[nH]cc(CCCCN3CC=C(c4ccccc4)CC3)c2c1` | CP262 | 10.69 | inhibitor, partial curve, poor fit |
| 10 | `Oc1ccc2[nH]cc(CCCCN3CC=C(c4ccccc4)CC3)c2c1` | CP335 | 12 | inhibitor, single point |
| 11 | `Oc1ccc2[nH]cc(CCCCN3CC=C(c4ccccc4)CC3)c2c1` | P94_40 | 17.78 | inhibitor, single point |
| 12 | `Oc1ccc2[nH]cc(CCCCN3CC=C(c4ccccc4)CC3)c2c1` | CP269 | 13.46 | inhibitor, single point |
| 13 | `Oc1ccc2[nH]cc(CCCCN3CC=C(c4ccccc4)CC3)c2c1` | CP211 | 16.94 | inhibitor, single point |
| 14 | `Oc1ccc2[nH]cc(CCCCN3CC=C(c4ccccc4)CC3)c2c1` | CP268 | 12 | inhibitor, single point |
| 15 | `Oc1ccc2[nH]cc(CCCCN3CC=C(c4ccccc4)CC3)c2c1` | AA1029 | 10 | inhibitor, single point |
| 16 | `Oc1ccc2[nH]cc(CCCCN3CC=C(c4ccccc4)CC3)c2c1` | 3D7 | 11.22 | inhibitor, single point |
| 17 | `Oc1ccc2[nH]cc(CCCCN3CC=C(c4ccccc4)CC3)c2c1` | CP291 | 10.69 | inhibitor, partial curve |
| 18 | `Oc1ccc2[nH]cc(CCCCN3CC=C(c4ccccc4)CC3)c2c1` | CP260 | 10 | inhibitor, single point |
| 19 | `Oc1ccc2[nH]cc(CCCCN3CC=C(c4ccccc4)CC3)c2c1` | CP203 | 19.01 | inhibitor, single point |
| 20 | `Oc1ccc2[nH]cc(CCCCN3CC=C(c4ccccc4)CC3)c2c1` | CP238 | 11.22 | inhibitor, single point |
| 21 | `Oc1ccc2[nH]cc(CCCCN3CC=C(c4ccccc4)CC3)c2c1` | ATS95 | 11.22 | inhibitor, single point |
| 22 | `Oc1ccc2[nH]cc(CCCCN3CC=C(c4ccccc4)CC3)c2c1` | CP250 | 17.78 | inhibitor, single point |
| 23 | `Oc1ccc2[nH]cc(CCCCN3CC=C(c4ccccc4)CC3)c2c1` | CP185 | 10 | inhibitor, single point |
| 24 | `Oc1ccc2[nH]cc(CCCCN3CC=C(c4ccccc4)CC3)c2c1` | CP194 | 16.94 | inhibitor, partial curve |
| 25 | `Oc1ccc2[nH]cc(CCCCN3CC=C(c4ccccc4)CC3)c2c1` | HB3 | 17.78 | inhibitor, single point |
| 26 | `Oc1ccc2[nH]cc(CCCCN3CC=C(c4ccccc4)CC3)c2c1` | AS120 | 10 | inhibitor, single point |
| 27 | `Oc1ccc2[nH]cc(CCCCN3CC=C(c4ccccc4)CC3)c2c1` | PC15 | 11.22 | inhibitor, single point |
| 28 | `Oc1ccc2[nH]cc(CCCCN3CC=C(c4ccccc4)CC3)c2c1` | CP217 | 10 | inhibitor, single point |
| 29 | `Oc1ccc2[nH]cc(CCCCN3CC=C(c4ccccc4)CC3)c2c1` | CP325 | 13.46 | inhibitor, single point |
| 30 | `Oc1ccc2[nH]cc(CCCCN3CC=C(c4ccccc4)CC3)c2c1` | ATS189 | 11.22 | inhibitor, single point |
| 31 | `Oc1ccc2[nH]cc(CCCCN3CC=C(c4ccccc4)CC3)c2c1` | CP191 | 10 | inhibitor, partial curve |
| 32 | `Oc1ccc2[nH]cc(CCCCN3CC=C(c4ccccc4)CC3)c2c1` | CP201 | 15.1 | inhibitor, partial curve |
| 33 | `Oc1ccc2[nH]cc(CCCCN3CC=C(c4ccccc4)CC3)c2c1` | CP266 | 15.1 | inhibitor, partial curve |
| 34 | `Oc1ccc2[nH]cc(CCCCN3CC=C(c4ccccc4)CC3)c2c1` | CP252 | 11.22 | inhibitor, single point |
| 35 | `Oc1ccc2[nH]cc(CCCCN3CC=C(c4ccccc4)CC3)c2c1` | N140 | 11.22 | inhibitor, single point |
| 36 | `Oc1ccc2[nH]cc(CCCCN3CC=C(c4ccccc4)CC3)c2c1` | CP329 | 16.94 | inhibitor, single point |
| 37 | `Oc1ccc2[nH]cc(CCCCN3CC=C(c4ccccc4)CC3)c2c1` | CP215 | 19.01 | inhibitor, single point |
| 38 | `Oc1ccc2[nH]cc(CCCCN3CC=C(c4ccccc4)CC3)c2c1` | PAD | 12.59 | inhibitor, single point |
| 39 | `Oc1ccc2[nH]cc(CCCCN3CC=C(c4ccccc4)CC3)c2c1` | DIV30 | 15.1 | inhibitor, single point |
| 40 | `Oc1ccc2[nH]cc(CCCCN3CC=C(c4ccccc4)CC3)c2c1` | CP286 | 11.22 | inhibitor, single point |
| 41 | `Oc1ccc2[nH]cc(CCCCN3CC=C(c4ccccc4)CC3)c2c1` | CP305 | 15.1 | inhibitor, partial curve |
| 42 | `Oc1ccc2[nH]cc(CCCCN3CC=C(c4ccccc4)CC3)c2c1` | ECU | 11.22 | inhibitor, single point |